Experimental data published in publication PMC5556043.
No constants are given. Whether binding was seen depends on the method and setting. In cells and extracts the contact can be indirect. Some results given as binding are weak or reduced against the parent protein; the word gives no strength.

Amino acid sequences for entries named in this document (tags omitted).
UniProt P70398: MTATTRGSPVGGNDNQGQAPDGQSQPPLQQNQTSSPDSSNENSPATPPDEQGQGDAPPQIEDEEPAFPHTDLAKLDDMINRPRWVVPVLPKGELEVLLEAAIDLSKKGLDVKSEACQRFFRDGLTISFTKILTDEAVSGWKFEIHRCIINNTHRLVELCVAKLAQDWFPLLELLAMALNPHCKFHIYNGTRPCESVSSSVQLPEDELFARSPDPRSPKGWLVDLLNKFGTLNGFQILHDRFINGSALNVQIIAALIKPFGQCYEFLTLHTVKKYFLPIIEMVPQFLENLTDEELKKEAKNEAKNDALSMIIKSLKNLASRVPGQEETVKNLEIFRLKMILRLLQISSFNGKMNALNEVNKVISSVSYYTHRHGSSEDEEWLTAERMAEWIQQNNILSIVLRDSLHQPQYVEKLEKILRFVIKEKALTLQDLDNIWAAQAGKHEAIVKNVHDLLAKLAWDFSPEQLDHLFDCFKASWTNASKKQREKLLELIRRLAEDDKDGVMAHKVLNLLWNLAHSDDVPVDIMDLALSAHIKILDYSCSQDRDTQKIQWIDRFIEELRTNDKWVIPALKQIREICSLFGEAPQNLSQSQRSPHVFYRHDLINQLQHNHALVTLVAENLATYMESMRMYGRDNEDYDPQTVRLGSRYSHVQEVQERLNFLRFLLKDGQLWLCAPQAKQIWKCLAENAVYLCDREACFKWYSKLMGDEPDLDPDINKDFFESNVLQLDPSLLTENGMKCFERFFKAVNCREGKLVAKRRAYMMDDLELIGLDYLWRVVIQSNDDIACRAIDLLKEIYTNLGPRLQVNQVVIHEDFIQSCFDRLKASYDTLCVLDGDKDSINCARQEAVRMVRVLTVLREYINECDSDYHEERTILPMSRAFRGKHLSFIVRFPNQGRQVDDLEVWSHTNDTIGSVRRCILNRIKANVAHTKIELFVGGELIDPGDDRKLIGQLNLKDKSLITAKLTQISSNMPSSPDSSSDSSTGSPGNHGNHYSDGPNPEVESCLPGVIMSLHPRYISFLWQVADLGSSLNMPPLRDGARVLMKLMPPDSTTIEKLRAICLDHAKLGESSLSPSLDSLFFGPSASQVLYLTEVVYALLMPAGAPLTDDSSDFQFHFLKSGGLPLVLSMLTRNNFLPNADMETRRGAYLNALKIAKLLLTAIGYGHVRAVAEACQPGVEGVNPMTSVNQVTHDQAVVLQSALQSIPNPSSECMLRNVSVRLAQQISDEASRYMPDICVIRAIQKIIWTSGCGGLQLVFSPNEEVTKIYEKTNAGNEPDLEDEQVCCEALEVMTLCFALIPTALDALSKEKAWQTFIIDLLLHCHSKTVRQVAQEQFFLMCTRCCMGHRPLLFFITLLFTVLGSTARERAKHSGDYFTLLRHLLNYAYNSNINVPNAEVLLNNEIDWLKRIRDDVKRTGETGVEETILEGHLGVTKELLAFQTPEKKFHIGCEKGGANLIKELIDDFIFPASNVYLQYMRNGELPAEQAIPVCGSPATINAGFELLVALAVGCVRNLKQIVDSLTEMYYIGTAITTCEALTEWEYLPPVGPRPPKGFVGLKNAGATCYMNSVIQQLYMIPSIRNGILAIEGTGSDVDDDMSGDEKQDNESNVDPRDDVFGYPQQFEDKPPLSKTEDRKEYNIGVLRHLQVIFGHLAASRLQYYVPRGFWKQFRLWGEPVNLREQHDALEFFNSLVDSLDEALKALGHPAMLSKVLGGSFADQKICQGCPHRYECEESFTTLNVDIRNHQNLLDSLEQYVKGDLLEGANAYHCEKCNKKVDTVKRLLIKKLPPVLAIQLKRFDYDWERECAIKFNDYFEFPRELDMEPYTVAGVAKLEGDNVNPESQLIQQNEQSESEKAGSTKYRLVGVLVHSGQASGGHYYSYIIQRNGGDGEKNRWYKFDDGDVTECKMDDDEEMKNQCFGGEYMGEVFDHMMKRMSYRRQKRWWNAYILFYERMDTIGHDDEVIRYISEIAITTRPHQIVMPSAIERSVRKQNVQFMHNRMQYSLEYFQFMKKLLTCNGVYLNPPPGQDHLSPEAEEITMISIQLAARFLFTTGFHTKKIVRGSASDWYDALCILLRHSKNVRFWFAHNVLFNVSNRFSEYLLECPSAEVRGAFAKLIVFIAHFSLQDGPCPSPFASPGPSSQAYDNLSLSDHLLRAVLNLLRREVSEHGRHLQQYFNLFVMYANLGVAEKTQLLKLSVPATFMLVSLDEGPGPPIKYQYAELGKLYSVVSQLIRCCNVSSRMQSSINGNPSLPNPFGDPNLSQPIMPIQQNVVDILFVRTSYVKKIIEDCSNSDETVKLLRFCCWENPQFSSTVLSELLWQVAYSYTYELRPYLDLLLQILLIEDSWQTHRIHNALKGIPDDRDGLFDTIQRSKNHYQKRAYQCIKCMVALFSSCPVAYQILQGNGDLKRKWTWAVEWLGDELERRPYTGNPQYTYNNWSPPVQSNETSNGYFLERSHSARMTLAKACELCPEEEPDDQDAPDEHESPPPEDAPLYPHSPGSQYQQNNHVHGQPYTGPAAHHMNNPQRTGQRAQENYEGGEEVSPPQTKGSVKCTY
UniProt Q9QZS3: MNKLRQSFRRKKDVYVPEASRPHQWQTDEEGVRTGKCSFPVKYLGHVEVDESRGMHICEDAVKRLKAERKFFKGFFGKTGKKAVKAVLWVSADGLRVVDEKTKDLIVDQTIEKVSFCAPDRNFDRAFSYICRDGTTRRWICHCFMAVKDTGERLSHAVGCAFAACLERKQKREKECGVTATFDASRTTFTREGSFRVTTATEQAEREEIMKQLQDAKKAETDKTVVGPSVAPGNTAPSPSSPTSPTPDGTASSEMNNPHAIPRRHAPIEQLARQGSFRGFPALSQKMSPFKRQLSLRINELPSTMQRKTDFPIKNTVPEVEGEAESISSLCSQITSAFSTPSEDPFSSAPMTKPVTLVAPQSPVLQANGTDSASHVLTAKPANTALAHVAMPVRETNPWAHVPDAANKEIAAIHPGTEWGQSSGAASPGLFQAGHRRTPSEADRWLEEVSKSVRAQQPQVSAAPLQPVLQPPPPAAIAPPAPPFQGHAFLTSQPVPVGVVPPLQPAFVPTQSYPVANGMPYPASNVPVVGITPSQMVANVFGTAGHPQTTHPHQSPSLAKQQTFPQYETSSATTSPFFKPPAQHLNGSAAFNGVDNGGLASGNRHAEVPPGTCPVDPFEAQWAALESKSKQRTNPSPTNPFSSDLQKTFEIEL
UniProt Q02248: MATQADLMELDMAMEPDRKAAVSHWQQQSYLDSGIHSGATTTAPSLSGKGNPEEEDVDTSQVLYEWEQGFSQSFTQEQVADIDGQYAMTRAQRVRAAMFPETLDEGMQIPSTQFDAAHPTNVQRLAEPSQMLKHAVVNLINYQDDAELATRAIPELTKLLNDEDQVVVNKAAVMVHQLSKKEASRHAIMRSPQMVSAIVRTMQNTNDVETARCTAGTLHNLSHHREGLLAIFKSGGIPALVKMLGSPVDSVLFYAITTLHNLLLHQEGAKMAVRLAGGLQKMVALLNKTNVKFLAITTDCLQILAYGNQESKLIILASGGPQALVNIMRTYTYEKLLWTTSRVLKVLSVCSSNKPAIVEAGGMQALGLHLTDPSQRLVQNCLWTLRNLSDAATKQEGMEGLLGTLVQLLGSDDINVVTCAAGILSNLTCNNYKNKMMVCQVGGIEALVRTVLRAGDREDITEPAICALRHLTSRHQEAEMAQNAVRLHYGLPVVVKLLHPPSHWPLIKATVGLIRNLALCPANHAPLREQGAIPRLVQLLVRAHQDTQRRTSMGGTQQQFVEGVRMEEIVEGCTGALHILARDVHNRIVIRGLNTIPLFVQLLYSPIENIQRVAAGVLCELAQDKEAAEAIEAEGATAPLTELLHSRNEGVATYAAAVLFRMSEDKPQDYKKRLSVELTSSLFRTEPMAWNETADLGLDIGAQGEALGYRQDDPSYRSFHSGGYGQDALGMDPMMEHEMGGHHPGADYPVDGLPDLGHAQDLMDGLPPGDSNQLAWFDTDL
UniProt Q93008: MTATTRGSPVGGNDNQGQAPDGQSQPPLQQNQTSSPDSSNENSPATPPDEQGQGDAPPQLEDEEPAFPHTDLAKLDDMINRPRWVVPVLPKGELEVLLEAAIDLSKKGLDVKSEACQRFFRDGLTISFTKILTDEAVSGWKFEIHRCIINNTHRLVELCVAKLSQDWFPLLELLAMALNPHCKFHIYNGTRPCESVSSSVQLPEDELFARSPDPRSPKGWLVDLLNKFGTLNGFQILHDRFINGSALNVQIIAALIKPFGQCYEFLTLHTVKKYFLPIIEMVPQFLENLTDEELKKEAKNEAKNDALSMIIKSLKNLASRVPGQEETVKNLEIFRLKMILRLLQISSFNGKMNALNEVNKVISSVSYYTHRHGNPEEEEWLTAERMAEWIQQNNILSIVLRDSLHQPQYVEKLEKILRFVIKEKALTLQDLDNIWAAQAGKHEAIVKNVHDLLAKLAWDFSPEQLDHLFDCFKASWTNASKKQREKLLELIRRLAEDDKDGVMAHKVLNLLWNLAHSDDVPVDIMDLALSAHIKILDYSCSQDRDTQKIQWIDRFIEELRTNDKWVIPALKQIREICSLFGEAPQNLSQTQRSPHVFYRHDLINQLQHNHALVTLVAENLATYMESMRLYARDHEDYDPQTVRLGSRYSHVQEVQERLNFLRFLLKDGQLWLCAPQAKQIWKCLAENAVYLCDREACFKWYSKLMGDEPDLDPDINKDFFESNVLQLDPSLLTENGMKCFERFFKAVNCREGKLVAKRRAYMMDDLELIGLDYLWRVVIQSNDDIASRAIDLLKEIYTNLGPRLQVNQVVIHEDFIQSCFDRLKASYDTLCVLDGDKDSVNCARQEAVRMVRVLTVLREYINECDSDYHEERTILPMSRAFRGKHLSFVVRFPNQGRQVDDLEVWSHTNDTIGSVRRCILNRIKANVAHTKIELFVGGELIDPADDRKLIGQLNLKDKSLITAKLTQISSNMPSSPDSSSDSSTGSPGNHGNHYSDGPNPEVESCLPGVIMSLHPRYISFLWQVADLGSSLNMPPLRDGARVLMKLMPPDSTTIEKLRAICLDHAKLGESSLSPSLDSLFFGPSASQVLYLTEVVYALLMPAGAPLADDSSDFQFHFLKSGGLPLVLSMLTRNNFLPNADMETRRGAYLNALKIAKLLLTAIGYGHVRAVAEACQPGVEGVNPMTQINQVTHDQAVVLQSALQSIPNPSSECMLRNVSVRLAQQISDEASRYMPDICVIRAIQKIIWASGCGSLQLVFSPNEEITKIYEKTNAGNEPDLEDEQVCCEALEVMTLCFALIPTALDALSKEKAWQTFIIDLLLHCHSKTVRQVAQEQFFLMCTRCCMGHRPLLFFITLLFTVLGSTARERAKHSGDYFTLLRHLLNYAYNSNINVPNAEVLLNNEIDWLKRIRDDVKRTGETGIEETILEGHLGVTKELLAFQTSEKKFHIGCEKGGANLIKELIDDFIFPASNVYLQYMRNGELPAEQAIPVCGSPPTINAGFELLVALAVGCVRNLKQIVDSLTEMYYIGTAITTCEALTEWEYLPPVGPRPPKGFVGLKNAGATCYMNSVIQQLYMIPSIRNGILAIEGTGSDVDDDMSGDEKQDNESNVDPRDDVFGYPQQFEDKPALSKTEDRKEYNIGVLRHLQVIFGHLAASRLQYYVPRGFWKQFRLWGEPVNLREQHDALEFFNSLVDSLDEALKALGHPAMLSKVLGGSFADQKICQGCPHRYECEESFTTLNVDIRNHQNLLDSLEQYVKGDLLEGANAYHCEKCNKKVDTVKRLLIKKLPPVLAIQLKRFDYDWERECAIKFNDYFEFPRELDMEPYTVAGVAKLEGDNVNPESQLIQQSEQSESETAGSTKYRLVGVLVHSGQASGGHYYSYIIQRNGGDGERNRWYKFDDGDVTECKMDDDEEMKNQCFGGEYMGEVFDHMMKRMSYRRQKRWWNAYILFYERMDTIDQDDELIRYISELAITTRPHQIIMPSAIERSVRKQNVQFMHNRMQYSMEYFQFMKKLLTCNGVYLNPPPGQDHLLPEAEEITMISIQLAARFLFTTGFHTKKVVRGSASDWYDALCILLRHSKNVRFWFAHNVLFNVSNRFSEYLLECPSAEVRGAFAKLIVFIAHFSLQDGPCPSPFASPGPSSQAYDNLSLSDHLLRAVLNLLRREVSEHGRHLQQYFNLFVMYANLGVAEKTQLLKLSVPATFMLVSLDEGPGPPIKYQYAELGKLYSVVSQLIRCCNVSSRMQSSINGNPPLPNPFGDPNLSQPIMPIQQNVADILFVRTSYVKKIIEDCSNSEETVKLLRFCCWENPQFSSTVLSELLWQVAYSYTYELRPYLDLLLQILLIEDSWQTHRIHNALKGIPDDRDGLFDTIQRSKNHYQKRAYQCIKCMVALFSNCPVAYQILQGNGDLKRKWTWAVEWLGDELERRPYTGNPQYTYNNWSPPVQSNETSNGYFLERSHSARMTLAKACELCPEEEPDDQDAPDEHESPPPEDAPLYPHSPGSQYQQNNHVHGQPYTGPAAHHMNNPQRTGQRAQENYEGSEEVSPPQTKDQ

Tests used:
[1] = biological target: ubiquitin specific peptidase 9 located in the X-chromosome (Usp9x), mouse (mouse (endogenous in embryonic neocortex)) (UniProt P70398); test: co-IP; endogenous proteins from embryonic mouse cortical lysates (E14.5; E12.5 too for β-catenin; Usp9x +/Y and Usp9x -/Y), immunoprecipitated with an antibody to the bait (β-catenin, Axin, APC, β-TrCP, Usp9x or Numb), Pierce co-immunoprecipitation kit, immunoblot; IP lysis buffer 20 mM HEPES pH 7.8, 400 mM KCl, 5 mM EDTA, 0.4% NP40, 10% glycerol, 1 mM DTT
[2] = biological target: Numb, mouse (mouse (endogenous in embryonic neocortex)) (UniProt Q9QZS3); test: as above
[3] = biological target: β-catenin, mouse (mouse (endogenous in embryonic neocortex)) (UniProt Q02248); test: as above
[4] = biological target: APC, human (human (endogenous in HEK293)) (UniProt P25054); test: co-IP; endogenous proteins from HEK293 cell lysates, immunoprecipitated with Axin antibody or APC antibody, immunoblot
[5] = biological target: N-cadherin, mouse (mouse (endogenous in embryonic neocortex)) (UniProt P15116); test: co-IP; endogenous proteins from embryonic mouse cortical lysates (E14.5; E12.5 too for β-catenin; Usp9x +/Y and Usp9x -/Y), immunoprecipitated with an antibody to the bait (β-catenin, Axin, APC, β-TrCP, Usp9x or Numb), Pierce co-immunoprecipitation kit, immunoblot; IP lysis buffer 20 mM HEPES pH 7.8, 400 mM KCl, 5 mM EDTA, 0.4% NP40, 10% glycerol, 1 mM DTT

Substance | binding [1] | binding [2] | binding [3] | also measured
Itch, mouse (from UniProt Q8C863 1-864) (enzyme) | binds | binds |  | 
N-cadherin, mouse (from UniProt P15116 160-906) |  |  | binds | 
Numb, mouse (from UniProt Q9QZS3 1-653) | binds |  |  | 
USP9X, human (from UniProt Q93008 1-2554) (enzyme) |  |  |  | binding [4]: binds
ubiquitin specific peptidase 9 located in the X-chromosome (Usp9x), mouse (from UniProt P70398 1-2559) (enzyme) |  | binds | binds | binding [5]: binds
